Results taken from patent US6288028A, “BPC peptide salts with organo-protective activity, the process for their preparation and their use in therapy” (priority 1997, dated 2001).
At least one peptide structure holds a part that was inferred or is arguable (an end, a ring closure or a residue). Where no end group is shown, it is not given here.

System: ARBO-viruses (TBE, Bhania, Dengue 1, 2, 3, 4, Sinbis, West Nile, Ealovo), Hepatitis A, LCM, Herpes type 1
Details: mouse, in vivo

For “GEPPPGKPADDAGLV [NaBPC157, Monosodium Salt of BPC157]”, the “resistance of beneficial effects to heating” value was “resistant to an increased temperature”.
